# From PubChem BioAssay AID2685 (National Center for Advancing Translational Sciences (NCATS), 2010)
# Some of the results follow. Shown are side measurements of this screen, not its main read-out; they come without a call. Most of these compounds were active or inconclusive in the main read-out, so they are no random draw. Words in brackets tell the shape of the fitted curve; partial curves, single points and poor fits give uncertain potencies.
# Test: qHTS Assay for Lipid Storage Modulators in Drosophila S3 Cells;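 as to cell number change: cells counted by Cell Tracker Red CMTPX staining in the red channel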
# Conditions: BODIPY lipid droplet fluorescence, 18-24 h; for cell number change: measured here: cell count max response, cells fed with added oleic acid
# How it was run: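 Drosophila S3 cells got compounds at several concentrations plus oleic acid (400 uM solution). Laser-scanning cytometry with 488 nm excitation read lipid droplets at 500-530 nm and cells at 575-640 nm. Percent activity was relative to 20 uM Triacsin C.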
# [1] = measured here: lipid fluorescence (Fed channel) AC50, cells fed with added oleic acid
# [2] = measured here: cell number channel AC50, cells fed with added oleic acid
Compound,cell number change,AC50 [1],AC50 [2]
COc1ccc(CNC(=O)COc2cc(O)c3c(c2)OC(C)(C)CC3=O)cc1,21.6%,"29.1 µM [rising, single point]",–
O=C(C1CCCO1)N1CCc2ccccc21 (configuration not stated),9.59%,"18.4 µM [falling, partial curve]",–
COc1ccc(Cc2n[nH]c(=S)n2NC(=O)Nc2ccc(C)cc2)cc1,-22.2%,"0.00461 µM [falling, full curve, poor fit]",–
COc1ccc(CN2CCCC(C(=O)N3CCc4ccccc4C3)C2)cc1OC (configuration not stated),7.91%,–,"6.51 µM [rising, single point]"
Cc1ccc(C)c(S(=O)(=O)N2CCCC2CNC(=O)C(=O)NCCN2CCOCC2)c1 (configuration not stated),-39.4%,–,–
Cc1ccc(CCNC(=O)CNC(=O)c2cccs2)cc1,41.7%,"9.2 µM [rising, partial curve]","0.58 µM [rising, partial curve]"
NC(=O)c1cc([N+](=O)[O-])ccc1NCC1CCCCC1,-49.3%,"5.17 µM [falling, single point]","29.1 µM [falling, single point]"
CCn1c(SCC(=O)Nc2ccc(NC(C)=O)cc2)nc2c([nH]c3ccccc32)c1=O,18.1%,"0.00461 µM [rising, full curve, poor fit]","2.06 µM [falling, single point]"
COc1ccccc1N1CCN(C(=O)c2ccc(S(=O)(=O)N3CCCC3)cc2)CC1,15.2%,"10.3 µM [rising, partial curve]",–
O=C(NC(=S)NNS(=O)(=O)c1ccccc1)c1ccc([N+](=O)[O-])cc1,-4.31%,"0.291 µM [falling, full curve, poor fit]",–
Cc1ccc(CSc2sc(C(=O)c3ccccc3)c(N)c2C#N)cc1,68.1%,"14.6 µM [rising, partial curve]","2.06 µM [rising, full curve]"
Cc1ccc(NC(=O)Cc2nnc(SCC(=O)NC3CCCC3)n2C)c(C)c1,-7.89%,–,–
O=C(CCC(=O)Nc1ccc(Cl)cc1Cl)NNC(=O)Nc1ccccc1,15%,–,–
COC(=O)CCC(=O)Nc1cccc(C(=O)Nc2cccc(Cl)c2)c1,-35.2%,"16.4 µM [falling, partial curve, poor fit]","0.0058 µM [falling, full curve, poor fit]"
COC(=O)c1ccccc1-c1ccc(/C=C2\C(=O)N(c3ccccc3)N=C2c2ccccc2)o1,-26.9%,"32.6 µM [falling, partial curve, poor fit]",–
CCn1c(COC(=O)CNC(=O)c2cc(OC)c(OC)c(OC)c2)nc2cc(S(=O)(=O)N(C)C)ccc21,14.7%,"4.61 µM [falling, single point]",–
COc1cccc(CNc2ccc3c(c2)ncn3C(C)C)c1OC,4.17%,–,–
N#Cc1c(-c2ccccc2)nc2n(-c3ccccc3)nc(C(=O)Nc3ccccc3)n2c1=O,83.8%,"1.46 µM [rising, partial curve]","1.64 µM [rising, full curve]"
COc1cc2c(cc1NC(=O)Cc1ccc(C)cc1)oc1ccccc12,11.3%,"0.326 µM [falling, full curve]",–
CCC1CCCCN1C(=S)NC(=O)c1ccc([N+](=O)[O-])cc1 (configuration not stated),167%,–,–

Compound,cell number change,AC50 [1],AC50 [2]
O=C1C=C(/C=C/C2C=CC=CC2)C[C@@H](c2ccc(Cl)cc2)C1 (some centres not stated),-29.8%,–,–
CCOc1ccc(S(=O)(=O)N(C)c2ccc(OCC(=O)NC3=NCCS3)cc2)cc1,9.5%,–,–
CC(=O)NC(c1ccc(Cl)cc1Cl)c1ccc2cccnc2c1O (configuration not stated),-44.2%,–,"18.4 µM [falling, partial curve]"
c1ccc2c3c(c(CN4CCCCC4)cc2c1)COC3,-26.5%,"29.1 µM [falling, single point]",–
Cc1ccc(C)c(C(=O)CN2C(=O)C(=O)N(C3CCCC3)C2=O)c1,-10.2%,"29.1 µM [falling, single point]",–
CCNc1nc(Nc2ccc(C)c(Cl)c2)c2cnn(C)c2n1,-19.9%,"8.2 µM [falling, partial curve]",–
O=C(CNC(=O)c1sc2ccccc2c1Cl)NC1CC1,-28.4%,"1.46 µM [falling, full curve]","0.461 µM [falling, full curve, poor fit]"
S=C(NCCc1ccccc1)Nc1ccc(Br)cc1,-37.1%,–,"1.64 µM [falling, partial curve]"
O=c1cc(N2CCN(c3ccccc3)CC2)[nH]c(=O)n1-c1ccccc1,24.4%,–,–
CC(=O)Nc1ccc(SC[C@H](Cc2ccccc2)N2CC[C@@H](C(C)(C)C)CCC2=O)cc1,-33.7%,–,"18.4 µM [falling, single point]"
C[C@@H]1NC(=O)[C@@]2(C)[C@@H](c3ccccc3)[C@H]3COc4ccc(Cl)cc4[C@@H]3N2C1=O,-9.15%,"0.116 µM [rising, full curve, poor fit]",–
O=C(Nc1ccc(Cl)cc1)N(Cc1cccnc1)Cc1ccco1,–,"1.84 µM [rising, partial curve]","2.31 µM [rising, partial curve]"
CCOC(=O)c1ccc(N2C(=O)C(C)=C(C)C2=O)cc1,-10.1%,"0.00517 µM [rising, full curve, poor fit]",–
C(=C\c1ccccc1)/C=N/Nc1nc2ccccc2s1,-16.2%,"0.291 µM [rising, partial curve, poor fit]",–
COc1ccccc1NC(=O)CCSc1ccc(C)cc1,-36.8%,"29.1 µM [falling, single point]","29.1 µM [falling, single point]"
CCOC(=O)c1cc2occc2n1CC(=O)N1CCCc2ccccc21,-15.8%,"14.6 µM [rising, partial curve, poor fit]",–
O=C(Nc1ccc2c3c(cccc13)CC2)c1ccc(Br)o1,141%,–,"18.4 µM [rising, partial curve, poor fit]"
CCCOc1ccc(C2/C(=C(\O)c3c(C)[nH]c(C(=O)OC)c3C)C(=O)C(=O)N2CCN(C)C)cc1 (configuration not stated),-3.2%,–,–
O=C(O)c1cccc(N2C(=O)C3C4C=CC(C4=C(c4ccccc4)c4ccccc4)C3C2=O)c1 (configuration not stated),-9.24%,–,"3.26 µM [rising, single point]"
Nc1nc(SCC(=O)Nc2ccc(OC(F)(F)F)cc2)[nH]c(=O)c1NC(=O)c1ccc(Br)o1,-0.54%,"0.00461 µM [falling, full curve, poor fit]",–

Compound,cell number change,AC50 [1],AC50 [2]
CCOC(=O)C1=C(N)n2c(s/c(=C\c3cccs3)c2=O)=C(C(=O)OCC)C1c1cccs1 (configuration not stated),27.9%,"29.1 µM [rising, single point]",–
O=C(Cc1cccs1)Nc1cccc(-c2nc3cc4ccccc4cc3[nH]2)c1,58.8%,–,"5.17 µM [rising, partial curve]"
Cc1cccc(NC(=O)C[n+]2ccc(N(C)C)cc2)c1,-31.5%,"0.146 µM [falling, full curve, poor fit]","20.6 µM [falling, partial curve, poor fit]"
Cc1nc2cc(N3CCCCC3)c(NC(=O)c3ccncc3)cc2c(=O)n1Cc1ccccc1,49.3%,"6.51 µM [falling, single point]","14.6 µM [rising, partial curve]"
CC(C)N1CCN(Cc2ccc(OC3CCCC3)cc2)CC1CCO (configuration not stated),12.5%,"29.1 µM [rising, single point]",–
O=c1[nH]cc(O)c(=O)[nH]1,19.4%,"6.51 µM [falling, single point]",–
Cc1ccc(NC(=O)c2ccccc2-c2ccccc2C(=O)O)cc1,8.3%,"6.51 µM [falling, single point]",–
CCN(Cc1ccc2c(c1)OCCO2)C(=O)CSc1nc(C)nc2sc(C)c(C)c12,-3.21%,–,–
CCOC(=O)c1ccc(Oc2cc(C)nc(Cl)n2)cc1,-9.01%,–,–
CN(C(=O)COC(=O)c1cn(-c2ccccc2)nc1-c1ccccc1)C1CCS(=O)(=O)C1 (configuration not stated),11.1%,"29.1 µM [rising, single point]","6.51 µM [rising, partial curve, poor fit]"
COc1ccc(CN2C(=O)NC3(CCCCCC3)C2=O)cc1F,5.1%,"1.84 µM [rising, full curve, poor fit]",–
OCn1ncn(-c2ccccc2)c1=S,17.8%,"0.13 µM [falling, full curve, poor fit]",–
CCNc1nc(CN2CCCCC2)nc2scc(-c3ccccc3)c12,-6.23%,"29.1 µM [falling, single point]",–
Cc1ccc(S(=O)(=O)Cn2cnnn2)cc1,-2.42%,–,–
CCCCNC(=S)NNC(=O)C1=NN(c2cc(C)ccc2C)C(=O)CC1,–,"2.06 µM [falling, partial curve]",–
CC1CCCCC1NC(=O)COC(=O)COc1ccccc1Cl (configuration not stated),–,–,"0.58 µM [rising, single point]"
Cc1cc2[nH]c(=O)c(=O)[nH]c2cc1S(=O)(=O)NCc1ccccc1,-7.55%,"18.4 µM [rising, partial curve]",–
C(=N\c1nc2ccccc2n1CCN1CCCCC1)/c1ccc2c(c1)OCO2,40.3%,–,"20.6 µM [rising, single point]"
Cc1ccc(CSCC(=O)N2CCCC2)cc1,11.6%,"0.231 µM [falling, full curve, poor fit]",–
Cc1ccc2nc(Nc3nc(=O)c4ccccc4n3C)nc(C)c2c1,-13%,"2.31 µM [rising, full curve, poor fit]",–

# Some of these compounds in order of SMILES length, smallest number first.
Compound,cell number change,AC50 [1],AC50 [2]
CCCCNC(=S)NNC(=O)C1=NN(c2cc(C)ccc2C)C(=O)CC1,–,"2.06 µM [falling, partial curve]",–
C(=N\c1nc2ccccc2n1CCN1CCCCC1)/c1ccc2c(c1)OCO2,40.3%,–,"20.6 µM [rising, single point]"
Cc1nc2cc(N3CCCCC3)c(NC(=O)c3ccncc3)cc2c(=O)n1Cc1ccccc1,49.3%,"6.51 µM [falling, single point]","14.6 µM [rising, partial curve]"
CN(C(=O)COC(=O)c1cn(-c2ccccc2)nc1-c1ccccc1)C1CCS(=O)(=O)C1 (configuration not stated),11.1%,"29.1 µM [rising, single point]","6.51 µM [rising, partial curve, poor fit]"
